Like-named read-outs stand apart in the source and are kept apart here.
What was measured:
[1] = dimerization of acrylonitrile with ruthenium catalyst in presence of straight-chain dimer selectivity-enhancing agent (Table 2); details: 7.66 millimole agent, 150° C., 6 hours, sodium propionate; for Propionitrile selectivity / β-cyano-ethyl carboxylate selectivity: by-product
[2] = 7.66 millimole agent, 150° C., 6 hours, sodium carbonate; for Propionitrile selectivity / β-cyano-ethyl carboxylate selectivity: by-product

Compound | Acrylonitrile conversion [1] [%] | Straight-chain dimer selectivity [1] [%] | Propionitrile selectivity [1] [%] | β-cyano-ethyl carboxylate selectivity [1] [%] | Acrylonitrile conversion [2] [%] | Straight-chain dimer selectivity [2] [%] | Propionitrile selectivity [2] [%] | β-cyano-ethyl carboxylate selectivity [2] [%]
Cc1ccc(C(=O)O)s1 [5-Methyl-2-thiophene carboxylic acid] | 11 | 86 | 3 | 6 | – | – | – | –
CNc1ccccc1C(=O)O [N-methylanthranilic acid] | – | – | – | – | 17 | 83 | 3 | 8
O=C(O)c1ccccc1 [benzoic acid, reference compound] | – | – | – | – | 12 | – | – | –
CC(=O)c1ccc(C(=O)O)cc1 [p-acetylbenzoic acid] | – | – | – | – | 15 | 78 | 3 | 14
CC(=O)c1ccccc1C(=O)O [o-acetylbenzoic acid] | – | – | – | – | 15 | 77 | 3 | 15
CC(NC(=O)OCc1ccccc1)C(=O)O (centres unmarked) [N-Carbozenzyloxyalanine] | 9 | 75 | 3 | 15 | – | – | – | –
O=C(O)c1ccccc1F [o-fluorobenzoic acid] | – | – | – | – | 18 | 83 | 3 | 9
O=C(O)c1cccc(C(F)(F)F)c1 [m-trifluoromethylbenzoic acid] | – | – | – | – | 13 | 82 | 3 | 9
O=C(O)c1ccccc1Br [o-bromobenzoic acid] | – | – | – | – | 12 | – | – | –
O=C(O)c1ccc(Cl)c(Cl)c1 [3,4-dichlorobenzoic acid] | – | – | – | – | 17 | 82 | 3 | 11
O=C(O)c1c(F)c(F)c(F)c(F)c1F [pentafluorobenzoic acid, reference compound] | – | – | – | – | 8 | 10 | 10 | 0
Nc1ccccc1C(=O)O [Anthranilic acid] | – | – | – | – | 11 | 85 | 3 | 7
O=C(O)[C@@H]1CCCN1C(=O)OCc1ccccc1 [N-Carbobenzyloxyproline] | 19 | 86 | 3 | 6 | – | – | – | –
O=C(O)c1cccs1 [2-Thiophene carboxylic acid] | 20 | 86 | 3 | 6 | – | – | – | –
Cc1cccc(C(=O)O)c1 [m-methylbenzoic acid, reference compound] | – | – | – | – | 12 | – | – | –
O=C(O)c1ccccc1Cl [o-chlorobenzoic acid] | – | – | – | – | 17 | – | – | –
O=C(O)c1ccco1 [2-Furancarboxylic acid] | 19 | 86 | 3 | 6 | – | – | – | –
O=C(O)CNC(=O)OCc1ccccc1 [N-Carbobenzyloxyglicine] | 7 | 72 | 3 | 17 | – | – | – | –
O=C(O)Cc1cccs1 [2-Thiophene acetic acid] | 11 | 68 | 3 | 6 | – | – | – | –
COc1ccccc1C(=O)O [o-methoxybenzoic acid] | – | – | – | – | 9 | 81 | 8 | 6
O=C(O)c1ccccc1-c1ccccc1 [o-phenylbenzoic acid] | – | – | – | – | 17 | 82 | 3 | 11
O=C(O)c1ccccc1C(=O)c1ccccc1 [o-benzoylbenzoic acid] | – | – | – | – | 18 | – | – | –
O=C(O)c1c(F)cccc1F [2,6-difluorobenzoic acid] | – | – | – | – | 10 | 68 | 3 | 9
O=C(O)c1cccc(Cl)c1 [m-chlorobenzoic acid] | – | – | – | – | 17 | 80 | 3 | 12
N#Cc1cccc(C(=O)O)c1 [m-cyanobenzoic acid] | – | – | – | – | 13 | 70 | 3 | 22
O=C(O)c1c(Cl)cccc1Cl [2,6-dichlorobenzoic acid] | – | – | – | – | 12 | 78 | 3 | 13

Reference: patent US5466858A, “Method of producing straight-chain acrylonitrile dimers” (priority 1993, dated 1995)
